# Some of the results follow.
# Chains of the proteins cited; added tags and fusions are not shown. Lines headed by an entry give the natural chain unless they say otherwise; changes in a name come on top.
# UniProt A1A5C7: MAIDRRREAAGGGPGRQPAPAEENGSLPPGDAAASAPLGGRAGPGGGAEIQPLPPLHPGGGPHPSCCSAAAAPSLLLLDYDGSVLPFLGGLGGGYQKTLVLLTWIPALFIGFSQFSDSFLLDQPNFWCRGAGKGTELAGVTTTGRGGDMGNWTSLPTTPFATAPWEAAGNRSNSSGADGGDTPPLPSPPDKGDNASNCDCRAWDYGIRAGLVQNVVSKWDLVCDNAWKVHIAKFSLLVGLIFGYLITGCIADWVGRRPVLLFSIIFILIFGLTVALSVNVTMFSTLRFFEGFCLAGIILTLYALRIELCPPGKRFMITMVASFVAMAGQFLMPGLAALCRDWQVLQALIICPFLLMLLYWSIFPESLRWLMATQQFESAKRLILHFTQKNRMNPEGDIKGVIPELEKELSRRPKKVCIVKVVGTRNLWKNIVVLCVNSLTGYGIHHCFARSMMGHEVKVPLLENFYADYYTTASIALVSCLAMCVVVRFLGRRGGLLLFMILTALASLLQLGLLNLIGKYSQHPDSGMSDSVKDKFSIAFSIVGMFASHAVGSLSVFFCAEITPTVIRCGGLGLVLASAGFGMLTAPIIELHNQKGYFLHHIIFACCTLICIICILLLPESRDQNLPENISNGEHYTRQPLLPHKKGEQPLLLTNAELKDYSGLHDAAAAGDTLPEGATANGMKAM
# UniProt P48067: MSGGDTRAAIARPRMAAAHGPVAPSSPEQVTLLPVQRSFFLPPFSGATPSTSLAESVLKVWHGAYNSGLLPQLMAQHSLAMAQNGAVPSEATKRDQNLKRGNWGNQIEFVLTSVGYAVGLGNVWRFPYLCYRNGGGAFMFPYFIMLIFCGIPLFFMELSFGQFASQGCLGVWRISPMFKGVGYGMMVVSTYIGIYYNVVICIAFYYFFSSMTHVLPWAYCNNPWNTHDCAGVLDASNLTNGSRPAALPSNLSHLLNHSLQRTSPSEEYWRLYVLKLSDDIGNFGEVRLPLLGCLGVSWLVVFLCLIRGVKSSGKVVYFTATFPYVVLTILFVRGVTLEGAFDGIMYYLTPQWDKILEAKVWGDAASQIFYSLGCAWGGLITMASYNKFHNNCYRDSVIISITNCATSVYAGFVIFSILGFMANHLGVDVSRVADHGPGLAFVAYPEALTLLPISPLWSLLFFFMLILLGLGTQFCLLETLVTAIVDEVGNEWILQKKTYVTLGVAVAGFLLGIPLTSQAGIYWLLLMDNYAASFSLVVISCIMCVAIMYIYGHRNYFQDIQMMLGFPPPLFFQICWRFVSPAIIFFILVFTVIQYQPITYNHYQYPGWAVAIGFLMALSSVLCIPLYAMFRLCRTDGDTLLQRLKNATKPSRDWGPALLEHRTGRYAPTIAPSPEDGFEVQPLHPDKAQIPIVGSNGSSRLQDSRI
# UniProt P78382: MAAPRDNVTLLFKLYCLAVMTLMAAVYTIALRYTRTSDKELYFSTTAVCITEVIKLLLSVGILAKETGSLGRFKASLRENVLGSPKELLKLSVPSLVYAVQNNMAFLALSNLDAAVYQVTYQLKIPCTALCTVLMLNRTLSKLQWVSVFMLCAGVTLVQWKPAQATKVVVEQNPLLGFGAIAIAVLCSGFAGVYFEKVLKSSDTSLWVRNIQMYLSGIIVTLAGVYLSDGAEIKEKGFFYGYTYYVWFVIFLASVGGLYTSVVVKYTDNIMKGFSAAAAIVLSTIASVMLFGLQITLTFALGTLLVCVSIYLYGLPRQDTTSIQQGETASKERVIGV
# UniProt P14672: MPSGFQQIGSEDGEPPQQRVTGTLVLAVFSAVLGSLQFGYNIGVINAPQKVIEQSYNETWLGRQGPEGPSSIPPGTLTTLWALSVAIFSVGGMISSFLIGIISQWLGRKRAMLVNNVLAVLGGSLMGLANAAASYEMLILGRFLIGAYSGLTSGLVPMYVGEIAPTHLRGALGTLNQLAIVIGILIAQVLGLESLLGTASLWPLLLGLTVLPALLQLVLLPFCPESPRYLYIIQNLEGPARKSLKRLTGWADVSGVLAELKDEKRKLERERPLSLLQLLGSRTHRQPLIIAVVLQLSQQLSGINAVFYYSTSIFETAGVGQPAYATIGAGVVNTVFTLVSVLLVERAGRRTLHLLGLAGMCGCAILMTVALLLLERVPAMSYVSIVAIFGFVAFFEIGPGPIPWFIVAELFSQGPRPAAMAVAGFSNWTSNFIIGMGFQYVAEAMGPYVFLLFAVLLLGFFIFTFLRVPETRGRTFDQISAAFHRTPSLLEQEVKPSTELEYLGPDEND
# UniProt Q6P1M0: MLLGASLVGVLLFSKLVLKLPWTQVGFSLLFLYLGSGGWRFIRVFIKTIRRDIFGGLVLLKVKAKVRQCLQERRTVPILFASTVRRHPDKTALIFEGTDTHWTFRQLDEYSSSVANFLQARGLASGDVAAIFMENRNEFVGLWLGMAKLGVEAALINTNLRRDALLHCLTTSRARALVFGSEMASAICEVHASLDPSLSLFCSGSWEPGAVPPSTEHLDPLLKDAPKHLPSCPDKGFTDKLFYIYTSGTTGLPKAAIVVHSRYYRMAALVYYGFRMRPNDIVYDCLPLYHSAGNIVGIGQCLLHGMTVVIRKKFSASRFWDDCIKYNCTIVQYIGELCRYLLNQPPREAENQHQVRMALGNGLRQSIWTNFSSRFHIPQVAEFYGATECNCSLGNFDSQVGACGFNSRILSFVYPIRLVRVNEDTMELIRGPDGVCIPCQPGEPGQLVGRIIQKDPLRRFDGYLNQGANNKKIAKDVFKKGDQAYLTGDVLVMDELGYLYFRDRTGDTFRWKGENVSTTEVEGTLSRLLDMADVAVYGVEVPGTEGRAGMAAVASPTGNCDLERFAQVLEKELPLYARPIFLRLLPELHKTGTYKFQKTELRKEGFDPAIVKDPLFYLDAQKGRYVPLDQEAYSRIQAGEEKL
# UniProt Q15758: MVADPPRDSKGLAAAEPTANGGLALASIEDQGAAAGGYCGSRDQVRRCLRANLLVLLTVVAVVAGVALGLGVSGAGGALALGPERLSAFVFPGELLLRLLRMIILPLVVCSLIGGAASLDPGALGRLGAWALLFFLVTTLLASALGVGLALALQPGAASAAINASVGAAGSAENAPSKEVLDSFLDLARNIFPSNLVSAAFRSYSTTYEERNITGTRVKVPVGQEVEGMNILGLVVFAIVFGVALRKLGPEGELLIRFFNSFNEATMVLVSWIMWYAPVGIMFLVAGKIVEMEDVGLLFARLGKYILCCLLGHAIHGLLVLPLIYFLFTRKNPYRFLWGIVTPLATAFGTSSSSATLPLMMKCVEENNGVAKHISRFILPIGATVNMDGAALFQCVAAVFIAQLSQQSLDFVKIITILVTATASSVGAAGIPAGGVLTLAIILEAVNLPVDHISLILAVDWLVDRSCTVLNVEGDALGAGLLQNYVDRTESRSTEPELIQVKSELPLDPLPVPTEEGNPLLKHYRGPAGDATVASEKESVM
# UniProt Q9H2X9: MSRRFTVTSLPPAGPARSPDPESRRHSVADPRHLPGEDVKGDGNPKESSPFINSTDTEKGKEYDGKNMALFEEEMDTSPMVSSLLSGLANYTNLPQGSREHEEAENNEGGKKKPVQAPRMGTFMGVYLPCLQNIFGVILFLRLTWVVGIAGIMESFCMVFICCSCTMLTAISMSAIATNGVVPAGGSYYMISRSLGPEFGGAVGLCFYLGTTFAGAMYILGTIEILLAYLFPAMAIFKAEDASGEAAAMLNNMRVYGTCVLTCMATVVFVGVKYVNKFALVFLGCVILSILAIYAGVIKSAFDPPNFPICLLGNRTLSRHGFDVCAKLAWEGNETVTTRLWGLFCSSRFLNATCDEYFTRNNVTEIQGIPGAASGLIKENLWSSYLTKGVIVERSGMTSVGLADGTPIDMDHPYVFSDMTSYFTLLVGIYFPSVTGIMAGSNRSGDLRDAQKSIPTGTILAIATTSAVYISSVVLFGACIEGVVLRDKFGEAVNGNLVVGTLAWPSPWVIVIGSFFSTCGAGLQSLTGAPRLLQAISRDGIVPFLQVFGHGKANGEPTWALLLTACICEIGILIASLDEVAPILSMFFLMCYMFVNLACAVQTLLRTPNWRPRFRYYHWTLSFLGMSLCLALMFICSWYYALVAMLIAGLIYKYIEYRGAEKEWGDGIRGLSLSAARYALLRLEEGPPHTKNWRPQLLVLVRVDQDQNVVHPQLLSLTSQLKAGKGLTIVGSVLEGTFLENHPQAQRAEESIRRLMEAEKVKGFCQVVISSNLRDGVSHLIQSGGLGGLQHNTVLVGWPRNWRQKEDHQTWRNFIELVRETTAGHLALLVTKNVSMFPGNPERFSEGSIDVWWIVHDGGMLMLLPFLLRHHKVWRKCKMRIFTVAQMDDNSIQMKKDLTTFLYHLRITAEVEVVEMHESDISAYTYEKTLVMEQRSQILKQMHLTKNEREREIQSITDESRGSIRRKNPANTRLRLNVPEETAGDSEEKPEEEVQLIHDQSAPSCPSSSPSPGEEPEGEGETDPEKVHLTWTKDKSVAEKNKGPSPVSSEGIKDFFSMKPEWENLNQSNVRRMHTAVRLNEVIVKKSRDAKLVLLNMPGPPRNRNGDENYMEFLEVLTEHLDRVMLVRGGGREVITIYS
# UniProt Q8N1S5: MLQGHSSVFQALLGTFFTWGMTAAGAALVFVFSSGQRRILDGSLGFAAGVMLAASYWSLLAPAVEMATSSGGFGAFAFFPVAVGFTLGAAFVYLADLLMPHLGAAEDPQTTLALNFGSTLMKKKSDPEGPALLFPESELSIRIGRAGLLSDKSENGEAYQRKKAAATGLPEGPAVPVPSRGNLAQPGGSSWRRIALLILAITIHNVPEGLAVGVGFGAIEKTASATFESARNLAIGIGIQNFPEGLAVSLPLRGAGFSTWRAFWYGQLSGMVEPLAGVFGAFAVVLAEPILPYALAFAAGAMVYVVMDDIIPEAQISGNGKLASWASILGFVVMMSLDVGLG
# UniProt Q9BZJ4: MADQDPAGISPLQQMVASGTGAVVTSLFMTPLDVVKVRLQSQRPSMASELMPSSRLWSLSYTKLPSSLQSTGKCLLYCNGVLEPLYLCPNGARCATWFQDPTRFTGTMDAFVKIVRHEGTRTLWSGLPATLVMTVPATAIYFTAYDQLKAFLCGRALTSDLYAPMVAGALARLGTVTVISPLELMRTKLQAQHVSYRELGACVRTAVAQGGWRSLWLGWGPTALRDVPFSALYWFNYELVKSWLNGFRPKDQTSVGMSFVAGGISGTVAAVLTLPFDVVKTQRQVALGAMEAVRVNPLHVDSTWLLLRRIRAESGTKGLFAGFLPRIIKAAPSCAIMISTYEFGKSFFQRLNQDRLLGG
# UniProt Q96H78: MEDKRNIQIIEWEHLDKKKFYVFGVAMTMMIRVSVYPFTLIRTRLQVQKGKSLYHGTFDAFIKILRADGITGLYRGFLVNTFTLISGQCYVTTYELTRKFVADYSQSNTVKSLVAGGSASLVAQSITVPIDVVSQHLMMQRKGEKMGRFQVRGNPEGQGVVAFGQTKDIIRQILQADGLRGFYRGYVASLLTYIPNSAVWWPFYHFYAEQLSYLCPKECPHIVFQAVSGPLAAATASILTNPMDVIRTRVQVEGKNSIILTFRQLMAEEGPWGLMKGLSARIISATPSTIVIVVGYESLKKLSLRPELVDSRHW
# Legend:
# Assay in all cases: log2 fold change, soluble protein after heating vs DMSO (PISA); higher = thermal stabilisation; K562 cells, 10 uM, 30 min; active = over 0.2 and 3.5 SD of the protein, either way, in both replicates (recomputed)
# [1] = compound: CC[C@@H]1C(=O)N(C)c2cnc(Nc3ccc(C(=O)NC4CCN(C)CC4)cc3OC)nc2N1C1CCCC1
# Summary of the method: (§1)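 Soluble protein was defined as the supernatant after 21,000xg for 90 min. It came from K562 cells at 2×10^6 cells/mL given 10 μM compound for 30 min, heated in aliquots for 3 min across 48°C-58°C, pooled, and extracted in PBS with 0.5% NP-40 at 4°C, and was quantified by TMTpro 16plex LC-MS/MS with equalised channel sums. Thermal stability against control samples, from duplicates, is reported as log2 fold change.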
# [2] = compound: CC[C@@H]1C(=O)N(C)c2cnc(Nc3ccc(C(=O)N[C@H]4CC[C@H](N5CCN(CC6CC6)CC5)CC4)cc3OC)nc2N1C(C)C [volasertib]
# Summary of the method: as §1
# [3] = compound: CCn1c(C(=O)N(C2CC2)C2CC2)cc2c3c(ncn3C)c(Nc3cc(C)n(C)n3)nc21
# Summary of the method: as §1
# [4] = compound: CCn1cc(-c2ccnc3[nH]c(-c4cccc(CN(C)C)c4)cc23)c(-c2ccc(NC(=O)N(C)C)cc2)n1
# Summary of the method: as §1
# [5] = compound: CN1C2=C(C3=C1C(=O)N(N=C3)CC4=CC(=CC=C4)N)SC(=C2)S(=O)C
# Summary of the method: as §1
# [6] = compound: CN1CCC(CNc2ccc3ncc(-c4cccc(OC(F)(F)F)c4)n3n2)CC1
# Summary of the method: as §1
# [7] = compound: CN1CCN(CCOc2cc(OC3CCOCC3)c3c(Nc4c(Cl)ccc5c4OCO5)ncnc3c2)CC1 [saracatinib]
# Summary of the method: as §1
# [8] = compound: CN1CC[C@H](c2c(O)cc(O)c3c(=O)cc(-c4ccccc4Cl)oc23)[C@H](O)C1 [alvocidib]
# Summary of the method: as §1
# [9] = compound: CNC(=O)C1=CC=CC=C1NC2=NC(=NC=C2Cl)NC3=C(C=C(C=C3)N4CCOCC4)OC
# Summary of the method: as §1
# [10] = compound: CNCc1ccc(-c2[nH]c3cc(F)cc4c3c2CCNC4=O)cc1 [rucaparib]
# Summary of the method: as §1
# [11] = compound: CNc1nc(-c2ccc3c(N)n[nH]c3c2)cc(N2C[C@@H](C(=O)NC3CCCCC3)CC[C@H]2C)n1
# Summary of the method: as §1
# [12] = compound: COC(=O)N[C@@H](C)CNc1nccc(-c2cn(C(C)C)nc2-c2cc(Cl)cc(NS(C)(=O)=O)c2F)n1 [encorafenib]
# Summary of the method: as §1
# [13] = compound: CC[C@H](C)N1C=C(C2=C(C=C(C=C21)C3=CN=C(C=C3)N4CCNCC4)C(=O)NCC5=C(C=C(NC5=O)C)C)C
# Summary of the method: as §1
# [14] = compound: CN(C)CC(=O)Nc1ccc2[nH]c(=O)c3ccccc3c2c1
# Summary of the method: as §1
# [15] = compound: CN(CCOC1=CC=C(C=C1)C[C@H]2C(=O)NC(=O)S2)C3=CC=CC=N3 (racemic) [rosiglitazone]
# Summary of the method: as §1
# [16] = compound: CN1CCN(c2nc(C3=C(c4c[nH]c5ccccc45)C(=O)NC3=O)c3ccccc3n2)CC1 [sotrastaurin]
# Summary of the method: as §1
# [17] = compound: CN1CCc2c(c3ccccc3n2Cc2ccc(C(=O)NO)cc2)C1 [Tubastatin A]
# Summary of the method: as §1
# [18] = compound: CNC(=O)c1ccc(Nc2ncc(C(F)(F)F)c(NCc3nccnc3N(C)S(C)(=O)=O)n2)cc1 [defactinib]
# Summary of the method: as §1
# [19] = compound: COC(=O)[C@H](CCSC)NC(=O)C1=C(C=C(C=C1)NC[C@H](CS)N)C2=CC=CC=C2
# Summary of the method: as §1
# [20] = compound: CC[C@H](C)[C@@H](C(=O)N[C@@H]([C@@H](C)O)C(=O)N[C@@H](CC(C)C)C(=O)[C@]1(CO1)C)NC(=O)[C@H]([C@@H](C)CC)N(C)C(=O)C [epoxomicin]
# Summary of the method: as §1
Target,log2 fold change [1],log2 fold change [2],log2 fold change [3],log2 fold change [4],log2 fold change [5],log2 fold change [6],log2 fold change [7],log2 fold change [8],log2 fold change [9],log2 fold change [10],log2 fold change [11],log2 fold change [12],log2 fold change [13],log2 fold change [14],log2 fold change [15],log2 fold change [16],log2 fold change [17],log2 fold change [18],log2 fold change [19],log2 fold change [20]
SLC22A23 (UniProt A1A5C7),inactive: 0.04,inactive: 0.229,inactive: -0.023,inactive: -0.028,inactive: 0.02,inactive: 0.094,inactive: -0.268,inactive: -0.019,inactive: -0.014,inactive: 0.06,inactive: -0.109,inactive: 0.032,,,,,,,,
SLC6A9 (UniProt P48067),inactive: 0.044,inactive: -0.054,inactive: 0.021,inactive: -0.04,inactive: -0.093,inactive: 0.117,inactive: 0.04,inactive: -0.003,inactive: -0.048,inactive: -0.071,inactive: 0.037,inactive: 0.009,inactive: 0.11,inactive: 0.046,inactive: 0.084,inactive: 0.037,inactive: -0.082,inactive: -0.034,inactive: 0.08,
SLC35A1 (UniProt P78382),inactive: 0.148,inactive: 0.118,,,inactive: -0.191,,inactive: 0.038,,inactive: -0.016,inactive: 0.048,inactive: -0.112,inactive: 0.043,inactive: -0.034,inactive: -0.056,,inactive: 0.015,inactive: -0.038,inactive: -0.198,inactive: -0.211,inactive: 0.018
SLC2A4 (UniProt P14672),inactive: 0.137,inactive: 0.194,inactive: 0.169,inactive: -0.083,,inactive: -0.044,,inactive: -0.161,inactive: -0.087,inactive: -0.078,,inactive: 0.078,inactive: -0.011,,inactive: -0.096,inactive: 0.001,inactive: 0.1,,,
SLC27A4 (UniProt Q6P1M0),inactive: -0.048,active: -0.473,,inactive: -0.036,inactive: -0.051,inactive: -0.158,inactive: -0.035,,inactive: -0.083,inactive: 0.06,inactive: 0.072,inactive: 0.018,inactive: 0.03,inactive: 0.04,,inactive: 0.035,inactive: -0.005,inactive: -0.084,inactive: -0.05,inactive: -0.064
SLC1A5 (UniProt Q15758),inactive: 0.095,inactive: 0.027,,inactive: -0.014,inactive: -0.114,active: 0.226,inactive: 0,,inactive: -0.09,inactive: -0.015,inactive: 0.033,inactive: -0.045,inactive: -0.043,inactive: -0.02,,inactive: 0.064,inactive: -0.023,inactive: -0.01,inactive: 0.058,inactive: -0.001
SLC12A5 (UniProt Q9H2X9),inactive: -0.007,inactive: -0.033,,,inactive: 0.316,,inactive: -0.152,,inactive: -0.007,inactive: -0.138,inactive: 0.148,inactive: 0.044,,inactive: -0.013,,inactive: 0.053,inactive: -0.072,inactive: 0.08,inactive: 0.075,inactive: -0.162
SLC39A11 (UniProt Q8N1S5),inactive: 0.102,inactive: 0.071,,inactive: -0.136,inactive: -0.021,inactive: 0.15,inactive: 0.098,,inactive: -0.223,active: -0.518,inactive: -0.015,inactive: -0.077,inactive: 0.007,inactive: -0.062,,inactive: 0.127,inactive: -0.164,inactive: 0.074,inactive: -0.082,
SLC25A39 (UniProt Q9BZJ4),inactive: 0.029,inactive: -0.06,,inactive: -0.12,inactive: 0.012,active: -0.82,inactive: 0.107,,inactive: -0.118,inactive: -0.01,inactive: 0.015,inactive: 0.005,inactive: 0.087,inactive: 0.06,,inactive: -0.076,inactive: -0.18,inactive: -0.044,inactive: 0.041,inactive: 0.081
SLC25A44 (UniProt Q96H78),inactive: 0.063,inactive: 0.013,,inactive: 0.051,inactive: -0.025,inactive: 0.116,inactive: 0.071,inactive: 0.028,,inactive: -0.146,inactive: -0.027,inactive: 0.017,inactive: 0.003,inactive: -0.018,inactive: -0.252,inactive: -0.012,inactive: 0,inactive: 0.002,inactive: -0.058,inactive: -0.046

# Single entries from the results shown:
# SLC39A11 (UniProt Q8N1S5) – log2 fold change [13]: inactive: 0.007
# SLC2A4 (UniProt P14672) – log2 fold change [3]: inactive: 0.169

# Reference: the supplement of paper PMC10849652
